The source of these data is paper PMC11464680, “ABIOTIC STRESS GENE 1 mediates aroma volatiles accumulation by activating MdLOX1a in apple”.

Negatives hold for the conditions tested. At least one verdict was read from the data and is not stated in words by the source. Where a protein sequence is shown, tags need not be part of it. The exact form of at least one protein or probe is not confirmed.

The target of this data set is T1, MdASG1-GST (UniProt A0A498KLW2).
T1 sequence (looked up, limits assumed): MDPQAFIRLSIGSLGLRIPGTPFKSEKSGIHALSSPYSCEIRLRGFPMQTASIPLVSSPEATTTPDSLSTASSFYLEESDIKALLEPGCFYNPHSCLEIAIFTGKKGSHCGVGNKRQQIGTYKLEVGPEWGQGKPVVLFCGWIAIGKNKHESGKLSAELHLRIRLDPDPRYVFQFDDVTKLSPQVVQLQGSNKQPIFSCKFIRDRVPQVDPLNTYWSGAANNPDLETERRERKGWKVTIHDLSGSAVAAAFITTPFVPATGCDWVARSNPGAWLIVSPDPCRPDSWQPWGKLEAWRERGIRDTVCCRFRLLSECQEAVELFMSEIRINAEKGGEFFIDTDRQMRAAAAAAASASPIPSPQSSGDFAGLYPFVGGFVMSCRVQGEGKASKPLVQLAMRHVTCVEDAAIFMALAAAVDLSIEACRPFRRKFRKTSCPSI
Kind of data set: EMSA. Conditions: LightShift Chemiluminescent EMSA kit binding buffer (composition, salt and pH not stated), 24 °C, 15 min, recombinant protein, protein details: GST (pGEX-4T, N-terminal), label: biotin. A general note: A gel shift assay detects complexes by their altered migration in electrophoresis.

For “AATTACGCAGGGATTACATCTAAGCCAGCTAACTTTCGGGATAAACGATTTTGTAC (double strand) [p4MdLOX1a-2-M3]”, the binding result is recorded as “binds”. Still for that read-out and setting: next, “AATTACGCAGGGATTACATCTATGTCATCTTAAAGCCAGCTAACACGATTTTGTAC (double strand) [p4MdLOX1a-2-M5]”: “binds”. For “AATTACGCAGGGATTACATCTATGTCATCTTAATTTCGGGATAAACGATTTTGTAC (double strand) [p4MdLOX1a-2-M4]”, the binding result is “binds”. Same read-out and setting: the same measure for “AATTACGCAGGTGTCATCTTAAAGCCAGCTAACTTTCGGGATAAACGATTTTGTAC (double strand) [p4MdLOX1a-2-M2]”: “binds”; for “CAAGGAGTGTGTGGATAGCACACCCTGTGAGGAAATTGGCACTTTTCACATTATAAAACATAAATT (double strand) [p4MdLOX1a-1]”: “no binding”. In the case of “CTTTCAATTTATTTCACAATTATTCACAACATTCTTTGCTTAATTAGTTCTTGGAAACTAGAACACA (double strand) [p4MdLOX1a-4]”, the binding result is on record as “no binding”. Consider “GACTTTTTCACGTTTTCCCCTTTAAATACGACCACCCTTCATTGAACTCTTCCATGCAAAGTTTCGA (double strand) [p4MdLOX1a-3]”, for which the binding result is reported as “no binding”. Turning to “GATTACATCTATGTCATCTTAAAGCCAGCTAACTTTCGGGATAAACGATTTTGTAC (double strand) [p4MdLOX1a-2-M1]”, where the note is “cold probe weakened binding (Fig. 3e, hot probe M1 implied by mutant name)”, the binding result is recorded as “binds”.
